Holding throughout (assay): log2 fold change, soluble protein after heating vs DMSO (PISA); higher = thermal stabilisation; K562 lysate, 10 uM; active = over 0.2 and 3.5 SD of the protein, either way, in both replicates (recomputed)
Compound in one assay: CS(=O)(=O)CCNCc1ccc(-c2ccc3ncnc(Nc4ccc(OCc5cccc(F)c5)c(Cl)c4)c3c2)o1 [lapatinib]
An outline of the steps:
(§1)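 Thermal stability, expressed as log-two fold change relative to solvent controls, is given from duplicates. Crude K562 extract in PBS pH 7.4 with 1 mM MgCl2, at 1 mg/mL protein, was treated with 10 μM compound for 30 min and heated in aliquots for 3 min across 48°C-58°C. After pooling, adjustment to 0.5% NP-40 at 4°C and centrifugation at 21,000xg for 90 min, supernatant protein was measured by TMTpro 16plex LC-MS/MS with channel sums equalised.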

The chains behind the UniProt entries cited, without tags or fusion partners. Where a name states a change or a piece, a line headed by the entry shows the natural chain unless it says otherwise.
UniProt Q9UHY1: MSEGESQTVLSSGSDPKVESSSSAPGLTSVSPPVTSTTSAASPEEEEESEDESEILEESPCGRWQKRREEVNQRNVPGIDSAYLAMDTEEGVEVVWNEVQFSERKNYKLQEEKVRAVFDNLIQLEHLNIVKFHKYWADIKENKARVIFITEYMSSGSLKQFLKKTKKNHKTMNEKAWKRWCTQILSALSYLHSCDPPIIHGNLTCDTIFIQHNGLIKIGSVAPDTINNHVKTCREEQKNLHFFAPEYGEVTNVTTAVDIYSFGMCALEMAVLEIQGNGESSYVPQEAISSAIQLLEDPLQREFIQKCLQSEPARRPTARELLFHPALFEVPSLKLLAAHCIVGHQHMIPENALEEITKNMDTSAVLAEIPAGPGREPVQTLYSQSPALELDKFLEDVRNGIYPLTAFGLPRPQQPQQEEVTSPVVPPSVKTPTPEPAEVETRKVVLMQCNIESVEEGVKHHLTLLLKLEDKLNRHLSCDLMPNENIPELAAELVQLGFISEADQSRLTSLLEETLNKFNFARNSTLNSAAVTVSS
UniProt O75052: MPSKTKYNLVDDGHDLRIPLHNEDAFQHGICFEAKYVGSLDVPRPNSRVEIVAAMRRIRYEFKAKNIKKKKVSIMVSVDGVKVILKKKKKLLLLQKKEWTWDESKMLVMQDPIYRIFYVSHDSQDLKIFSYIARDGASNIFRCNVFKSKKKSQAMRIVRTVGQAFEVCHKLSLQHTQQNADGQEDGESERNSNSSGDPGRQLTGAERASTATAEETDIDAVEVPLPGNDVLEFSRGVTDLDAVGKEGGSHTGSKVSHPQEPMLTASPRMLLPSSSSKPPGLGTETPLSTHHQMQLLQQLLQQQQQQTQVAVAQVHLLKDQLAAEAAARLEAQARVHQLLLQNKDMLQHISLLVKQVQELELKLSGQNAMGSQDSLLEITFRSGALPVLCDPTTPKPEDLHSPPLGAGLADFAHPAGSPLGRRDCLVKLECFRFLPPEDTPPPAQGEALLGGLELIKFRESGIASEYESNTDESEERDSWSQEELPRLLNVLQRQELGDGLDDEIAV
UniProt P15559, whole entry, looked up: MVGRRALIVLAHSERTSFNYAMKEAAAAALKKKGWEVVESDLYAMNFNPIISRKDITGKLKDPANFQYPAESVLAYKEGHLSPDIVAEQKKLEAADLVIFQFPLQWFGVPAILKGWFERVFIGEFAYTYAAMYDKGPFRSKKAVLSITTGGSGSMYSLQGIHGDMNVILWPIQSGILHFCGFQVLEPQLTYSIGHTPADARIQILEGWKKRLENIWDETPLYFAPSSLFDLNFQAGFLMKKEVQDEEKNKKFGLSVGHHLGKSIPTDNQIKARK
UniProt O60361, whole entry, looked up: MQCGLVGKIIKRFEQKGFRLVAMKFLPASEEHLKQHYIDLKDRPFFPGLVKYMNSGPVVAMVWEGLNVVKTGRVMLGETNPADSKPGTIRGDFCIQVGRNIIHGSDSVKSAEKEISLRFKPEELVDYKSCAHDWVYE
UniProt Q9NZJ9: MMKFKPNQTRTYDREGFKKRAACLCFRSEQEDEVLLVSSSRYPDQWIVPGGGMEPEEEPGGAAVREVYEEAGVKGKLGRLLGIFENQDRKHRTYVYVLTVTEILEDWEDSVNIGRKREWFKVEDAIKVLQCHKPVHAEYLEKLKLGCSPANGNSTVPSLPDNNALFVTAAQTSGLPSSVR
UniProt Q16656: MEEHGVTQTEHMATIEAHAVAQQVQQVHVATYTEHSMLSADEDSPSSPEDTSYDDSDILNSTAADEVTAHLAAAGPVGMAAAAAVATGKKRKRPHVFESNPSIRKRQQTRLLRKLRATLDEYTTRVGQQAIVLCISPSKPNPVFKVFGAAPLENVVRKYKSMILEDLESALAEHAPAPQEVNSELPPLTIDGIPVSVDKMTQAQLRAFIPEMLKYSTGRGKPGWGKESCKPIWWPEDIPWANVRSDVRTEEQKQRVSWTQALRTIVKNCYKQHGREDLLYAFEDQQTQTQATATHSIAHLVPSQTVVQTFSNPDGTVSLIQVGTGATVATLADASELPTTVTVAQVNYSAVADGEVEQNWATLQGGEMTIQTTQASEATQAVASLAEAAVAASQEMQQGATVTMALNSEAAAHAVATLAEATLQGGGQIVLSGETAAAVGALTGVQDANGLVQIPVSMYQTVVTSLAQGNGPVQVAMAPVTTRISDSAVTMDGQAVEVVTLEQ
UniProt Q96CB9: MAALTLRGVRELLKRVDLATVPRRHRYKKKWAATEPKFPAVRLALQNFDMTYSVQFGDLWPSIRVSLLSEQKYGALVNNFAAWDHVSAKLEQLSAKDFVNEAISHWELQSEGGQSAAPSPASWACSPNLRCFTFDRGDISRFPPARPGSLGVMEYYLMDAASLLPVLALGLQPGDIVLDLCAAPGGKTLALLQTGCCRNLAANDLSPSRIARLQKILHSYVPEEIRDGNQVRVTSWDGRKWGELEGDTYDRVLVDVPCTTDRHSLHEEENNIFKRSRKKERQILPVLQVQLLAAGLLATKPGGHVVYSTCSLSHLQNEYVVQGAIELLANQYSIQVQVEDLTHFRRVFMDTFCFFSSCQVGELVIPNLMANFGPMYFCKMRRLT
UniProt Q8IVD9: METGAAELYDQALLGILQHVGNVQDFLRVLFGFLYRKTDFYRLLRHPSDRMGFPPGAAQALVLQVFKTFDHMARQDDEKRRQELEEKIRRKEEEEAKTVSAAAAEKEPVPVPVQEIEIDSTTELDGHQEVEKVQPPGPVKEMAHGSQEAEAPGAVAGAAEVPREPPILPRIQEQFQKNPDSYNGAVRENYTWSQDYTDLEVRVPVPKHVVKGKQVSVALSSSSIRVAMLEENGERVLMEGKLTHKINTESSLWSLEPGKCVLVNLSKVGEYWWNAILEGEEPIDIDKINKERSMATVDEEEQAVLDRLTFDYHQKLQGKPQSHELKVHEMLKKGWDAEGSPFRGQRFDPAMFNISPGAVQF
UniProt P48552: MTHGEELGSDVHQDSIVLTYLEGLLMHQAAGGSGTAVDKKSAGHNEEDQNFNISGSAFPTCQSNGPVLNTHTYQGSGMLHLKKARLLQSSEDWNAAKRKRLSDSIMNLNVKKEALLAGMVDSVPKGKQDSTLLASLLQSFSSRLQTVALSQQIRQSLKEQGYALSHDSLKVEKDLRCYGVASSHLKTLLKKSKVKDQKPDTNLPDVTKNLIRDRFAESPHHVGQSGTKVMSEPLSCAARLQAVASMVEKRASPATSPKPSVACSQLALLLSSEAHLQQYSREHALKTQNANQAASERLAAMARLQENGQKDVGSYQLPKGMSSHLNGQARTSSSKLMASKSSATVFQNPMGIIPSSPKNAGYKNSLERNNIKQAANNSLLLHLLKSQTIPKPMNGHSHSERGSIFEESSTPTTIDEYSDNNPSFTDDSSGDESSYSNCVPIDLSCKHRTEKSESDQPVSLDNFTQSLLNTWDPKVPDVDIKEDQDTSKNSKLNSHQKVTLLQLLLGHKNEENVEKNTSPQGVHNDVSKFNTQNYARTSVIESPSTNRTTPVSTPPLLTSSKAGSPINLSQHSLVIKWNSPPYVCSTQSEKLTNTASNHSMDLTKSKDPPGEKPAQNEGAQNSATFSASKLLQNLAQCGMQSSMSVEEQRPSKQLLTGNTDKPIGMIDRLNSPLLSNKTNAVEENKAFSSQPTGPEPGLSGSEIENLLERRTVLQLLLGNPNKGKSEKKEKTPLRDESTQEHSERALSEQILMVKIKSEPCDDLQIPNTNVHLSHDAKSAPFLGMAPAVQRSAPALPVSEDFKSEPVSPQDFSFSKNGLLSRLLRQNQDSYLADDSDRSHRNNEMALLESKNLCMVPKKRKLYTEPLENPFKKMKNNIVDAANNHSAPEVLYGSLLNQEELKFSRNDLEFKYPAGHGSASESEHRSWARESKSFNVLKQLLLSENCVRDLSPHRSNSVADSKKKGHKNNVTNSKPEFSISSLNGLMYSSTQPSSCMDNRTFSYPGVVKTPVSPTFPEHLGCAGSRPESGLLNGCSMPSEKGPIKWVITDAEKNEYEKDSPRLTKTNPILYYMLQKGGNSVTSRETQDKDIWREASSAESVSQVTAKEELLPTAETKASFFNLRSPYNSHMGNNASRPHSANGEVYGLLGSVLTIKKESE
UniProt Q9Y5A7: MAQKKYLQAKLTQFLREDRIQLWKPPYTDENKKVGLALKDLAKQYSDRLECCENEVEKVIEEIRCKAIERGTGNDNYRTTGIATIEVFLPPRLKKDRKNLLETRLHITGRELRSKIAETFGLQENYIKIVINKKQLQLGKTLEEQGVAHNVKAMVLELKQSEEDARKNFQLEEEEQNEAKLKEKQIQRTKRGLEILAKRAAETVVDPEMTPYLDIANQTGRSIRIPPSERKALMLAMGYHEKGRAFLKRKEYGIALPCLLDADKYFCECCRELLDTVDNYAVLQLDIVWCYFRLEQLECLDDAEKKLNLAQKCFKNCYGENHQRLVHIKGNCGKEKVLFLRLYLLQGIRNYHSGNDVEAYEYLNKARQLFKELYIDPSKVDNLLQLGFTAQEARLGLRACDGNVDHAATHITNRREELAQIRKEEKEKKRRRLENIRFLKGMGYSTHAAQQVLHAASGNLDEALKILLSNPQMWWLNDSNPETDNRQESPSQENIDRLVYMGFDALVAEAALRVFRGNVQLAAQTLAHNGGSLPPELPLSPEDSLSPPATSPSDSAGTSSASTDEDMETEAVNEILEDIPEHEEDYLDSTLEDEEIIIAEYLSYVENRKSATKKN
UniProt Q86WQ0: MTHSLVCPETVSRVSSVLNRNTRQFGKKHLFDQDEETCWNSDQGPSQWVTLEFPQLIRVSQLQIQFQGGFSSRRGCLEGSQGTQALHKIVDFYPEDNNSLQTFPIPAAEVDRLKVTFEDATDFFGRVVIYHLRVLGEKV
UniProt Q96IY1: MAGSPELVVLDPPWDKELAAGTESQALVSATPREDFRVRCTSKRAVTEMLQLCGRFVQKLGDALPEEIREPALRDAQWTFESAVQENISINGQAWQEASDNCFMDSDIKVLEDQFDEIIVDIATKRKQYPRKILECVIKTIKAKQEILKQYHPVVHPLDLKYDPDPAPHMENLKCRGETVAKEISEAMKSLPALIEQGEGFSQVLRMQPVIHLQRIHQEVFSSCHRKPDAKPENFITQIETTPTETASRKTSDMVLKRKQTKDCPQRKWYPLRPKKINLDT
UniProt Q8WVJ2: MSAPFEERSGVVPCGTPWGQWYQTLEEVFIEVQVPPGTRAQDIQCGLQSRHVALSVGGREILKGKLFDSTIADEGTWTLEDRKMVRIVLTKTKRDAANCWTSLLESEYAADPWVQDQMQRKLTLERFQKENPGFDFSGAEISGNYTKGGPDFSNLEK
UniProt Q8NE18: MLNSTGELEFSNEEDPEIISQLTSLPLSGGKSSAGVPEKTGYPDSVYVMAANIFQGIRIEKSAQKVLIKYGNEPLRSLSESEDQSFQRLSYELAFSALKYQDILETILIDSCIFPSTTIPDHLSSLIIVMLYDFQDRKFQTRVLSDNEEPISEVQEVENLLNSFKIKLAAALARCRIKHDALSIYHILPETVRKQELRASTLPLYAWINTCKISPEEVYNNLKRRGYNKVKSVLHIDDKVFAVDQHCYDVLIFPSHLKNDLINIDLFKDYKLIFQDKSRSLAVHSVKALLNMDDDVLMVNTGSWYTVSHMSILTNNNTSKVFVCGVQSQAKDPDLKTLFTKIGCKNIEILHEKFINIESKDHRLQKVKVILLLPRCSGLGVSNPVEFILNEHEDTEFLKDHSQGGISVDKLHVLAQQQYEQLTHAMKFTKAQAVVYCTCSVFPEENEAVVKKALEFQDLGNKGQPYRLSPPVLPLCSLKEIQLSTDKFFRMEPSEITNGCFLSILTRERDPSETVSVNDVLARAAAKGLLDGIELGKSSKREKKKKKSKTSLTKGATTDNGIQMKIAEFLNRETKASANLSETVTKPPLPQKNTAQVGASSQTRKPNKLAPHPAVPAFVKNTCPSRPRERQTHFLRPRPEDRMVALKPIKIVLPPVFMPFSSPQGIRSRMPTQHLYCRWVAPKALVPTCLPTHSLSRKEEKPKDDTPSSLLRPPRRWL

Compound in a further assay: CS(=O)(=O)N1CCN(Cc2cc3nc(-c4cccc5[nH]ncc45)nc(N4CCOCC4)c3s2)CC1 [pictilisib]
An outline of the steps:
as §1

Compound in a further assay: C[C@@H](Oc1cc(-c2cnn(C3CCNCC3)c2)cnc1N)c1c(Cl)ccc(F)c1Cl [crizotinib]
A digest of the protocol:
as §1

Compound in assay [1]: C[C@H](C1=CC=C(C=C1)C(=O)NC2=C3C=CNC3=NC=C2)N
An outline of the steps: as §1

Compound in the next assay: C[C@H](Nc1ncnc2nc[nH]c12)c1cc2cccc(Cl)c2c(=O)n1-c1ccccc1 [duvelisib]
A digest of the protocol: as §1

Compound in the next assay: Cc1cc(Nc2cc(CN3CCOCC3)c3nc(C)c(Cc4ccc(Cl)cc4F)n3n2)n[nH]1 [gandotinib]
An outline of the steps: as §1

Compound in the next assay: Cc1cc(Nc2cc(N3CCN(C)CC3)nc(Sc3ccc(NC(=O)C4CC4)cc3)n2)n[nH]1 [tozasertib]
An outline of the steps:
as §1

Compound in a further assay: Cc1ccc(-n2nc(C(C)(C)C)cc2NC(=O)Nc2ccc(OCCN3CCOCC3)c3ccccc23)cc1 [doramapimod]
An outline of the steps:
as §1

Compound in the next assay: Cc1ccc(NC(=O)c2ccc(CN3CC[C@H](N(C)C)C3)c(C(F)(F)F)c2)cc1Nc1nccc(-c2cncnc2)n1 [bafetinib]
A digest of the protocol:
as §1

Compound in assay [2]: Cc1cccc(CC(=O)N2CCc3c2ccc(-c2cn(C)c4ncnc(N)c24)c3F)n1
An outline of the steps:
as §1

This is one part of the list.

As for NRBP1 (UniProt Q9UHY1), the log2 fold change was inactive: 0.003 in the assay with lapatinib; inactive: 0.005 with pictilisib; inactive: -0.023 with crizotinib; inactive: -0.021 in assay [1]; inactive: 0.011 in the assay with duvelisib; inactive: 0.068 in the assay with gandotinib. The log2 fold change is inactive: -0.031 with tozasertib, inactive: -0.004 with doramapimod, inactive: -0.015 with bafetinib and inactive: 0.041 in assay [2].
As for NOS1AP (UniProt O75052), the log2 fold change is inactive: -0.225 in the assay with lapatinib; inactive: -0.064 in the assay with pictilisib; inactive: -0.229 in the assay with crizotinib; inactive: -0.377 in [1]; inactive: -0.032 with gandotinib; inactive: 0.247 with tozasertib. Besides, the log2 fold change is inactive: 0.34 with doramapimod, inactive: -0.465 with bafetinib and inactive: 0.484 in assay [2].
On to NQO1 (UniProt P15559), for which the log2 fold change with lapatinib is inactive: -0.055; with pictilisib, inactive: -0.048; with crizotinib, inactive: -0.04; in assay [1] it was inactive: -0.074; with duvelisib it was inactive: 0.012; in the assay with gandotinib, inactive: 0.009. Also, the log2 fold change is inactive: 0.022 with tozasertib, active: -0.333 in the assay with doramapimod, inactive: -0.023 with bafetinib and active: 0.262 in assay [2].
Regarding NME2P1 (UniProt O60361), the log2 fold change was inactive: -0.018 with lapatinib; inactive: 0.079 with pictilisib; inactive: -0.427 with crizotinib; inactive: -0.354 in [1]; inactive: 0.05 with duvelisib; inactive: 0.125 with gandotinib. For the same target, the values for the log2 fold change (with doramapimod; in the assay with bafetinib; in assay [2]) were inactive: 0.16, inactive: -0.229 and inactive: 0.238, respectively.
Regarding NOTCH1 (UniProt P46531), the log2 fold change is inactive: -0.044 with lapatinib; inactive: 0.09 in the assay with crizotinib; inactive: -0.328 in assay [1]; inactive: -0.034 with duvelisib; inactive: -0.117 with gandotinib; inactive: 0.084 in the assay with tozasertib. For the same target, the log2 fold change in the assay with doramapimod was inactive: 0.007; in assay [2] it was inactive: 0.185.
Regarding NUDT4 isoform 2 (UniProt Q9NZJ9), the log2 fold change in the assay with lapatinib was inactive: -0.002; in the assay with pictilisib it was inactive: 0.006; with crizotinib, inactive: -0.018; in [1] it was inactive: -0.055; with duvelisib it was inactive: -0.013; with gandotinib it was inactive: 0.061. For the same target, the log2 fold change in the assay with tozasertib is inactive: 0.065; in the assay with doramapimod, inactive: -0.009; in the assay with bafetinib it was inactive: -0.006; in [2], inactive: 0.011.
In the case of NRF1 isoform 4 (UniProt Q16656), the log2 fold change with lapatinib is inactive: -0.005; with pictilisib it was inactive: 0.009; with crizotinib it was inactive: -0.034; in assay [1] it was inactive: 0.029; with duvelisib it was inactive: -0.023; in the assay with gandotinib it was inactive: -0.022. The log2 fold change was inactive: -0.007 with tozasertib, inactive: -0.008 with doramapimod, inactive: -0.042 in the assay with bafetinib and inactive: -0.038 in [2].
Regarding NSUN4 (UniProt Q96CB9), the log2 fold change was inactive: 0.362 in the assay with lapatinib; inactive: 0.215 in the assay with pictilisib; inactive: -0.049 with crizotinib; inactive: 0.057 with duvelisib; inactive: 0.035 in the assay with doramapimod; inactive: -0.026 in the assay with bafetinib.
Regarding NUDCD3 (UniProt Q8IVD9), the log2 fold change with lapatinib is inactive: -0.013; in the assay with pictilisib it was inactive: -0.033; with crizotinib it was inactive: -0.012; in assay [1] it was inactive: 0.013; in the assay with duvelisib, inactive: -0.025; with gandotinib, inactive: 0.011. For the same target, the log2 fold change with tozasertib was inactive: 0.017; in the assay with doramapimod, inactive: 0.038; with bafetinib, inactive: -0.013; in assay [2] it was inactive: 0.012.
As to NRIP1 (UniProt P48552), the log2 fold change was inactive: -0.052 with lapatinib; inactive: -0.007 with pictilisib; inactive: -0.155 with crizotinib; inactive: -0.396 in assay [1]; inactive: -0.014 with duvelisib; inactive: 0.407 in the assay with gandotinib. Further, the log2 fold change with doramapimod was inactive: 0.048; in the assay with bafetinib, inactive: -0.07; in [2], inactive: 0.26.
With NUB1 (UniProt Q9Y5A7), the log2 fold change with lapatinib was inactive: -0.002; with pictilisib, inactive: -0.022; with crizotinib, inactive: 0.012; in [1], inactive: 0.009; with duvelisib, inactive: -0.004; with gandotinib, inactive: 0.011. The log2 fold change is inactive: 0.027 in the assay with tozasertib, inactive: -0.023 with doramapimod, inactive: -0.047 with bafetinib and inactive: -0.002 in assay [2].
NR2C2AP isoform 2 (UniProt Q86WQ0): the log2 fold change in the assay with lapatinib was inactive: -0.005; with pictilisib it was inactive: -0.003; in the assay with crizotinib it was inactive: -0.005; in assay [1], inactive: 0.005; with duvelisib it was inactive: 0.033; with gandotinib it was inactive: -0.071. Also, the log2 fold change in the assay with tozasertib is inactive: 0.115; with doramapimod it was inactive: 0.01; with bafetinib, inactive: 0.012; in assay [2] it was inactive: 0.016.
For the target NSL1 (UniProt Q96IY1), the log2 fold change with lapatinib is inactive: -0.003; with pictilisib, inactive: -0.032; in the assay with crizotinib it was inactive: 0.051; in assay [1], inactive: 0.001; with duvelisib, inactive: -0.033; in the assay with gandotinib, inactive: 0.094. For the same target, the log2 fold change with tozasertib was inactive: -0.01; with doramapimod, inactive: -0.047; with bafetinib, inactive: 0.034; in [2] it was inactive: 0.006.
With NUDCD2 (UniProt Q8WVJ2), the log2 fold change is inactive: -0.012 in the assay with lapatinib; inactive: -0.051 with pictilisib; inactive: -0.052 with crizotinib; inactive: -0.056 in [1]; inactive: 0.014 in the assay with duvelisib; inactive: 0.049 with gandotinib. For the same target, the log2 fold change was inactive: 0.031 with tozasertib, inactive: -0.008 with doramapimod, inactive: 0.081 with bafetinib and inactive: -0.036 in assay [2].
Turning to NSUN7 (UniProt Q8NE18), the log2 fold change is inactive: -0.094 with lapatinib; inactive: -0.001 in the assay with pictilisib; inactive: -0.374 with crizotinib; inactive: -0.039 in assay [1]; inactive: 0.022 with gandotinib; inactive: 0.152 with tozasertib. For the same target, the values for the log2 fold change (with doramapimod; with bafetinib; in assay [2]) were inactive: 0.045, inactive: 0.285 and inactive: 0.125, respectively.
